Results deposited as PubChem BioAssay AID1259254 (NCATS, 2017).
This is a random part of about 59,000 reagents. In the full data, about 1,550 (2.6%) got an active call. 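G2 share is only a proxy for re-replication; each gene was hit by three separate siRNAs, and active genes were retested.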 Raw values are not corrected between plates. A number with no mark means an inactive call. Reagents against one gene are numbered here. Not stated in the record: the amount of reagent.

- Screen: 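Finding genes that stop cells copying their DNA twice in one cycle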 (primary screen)
- Cell system: human HCT116 colorectal cancer cells
- Knock-down reagent: single siRNA against human genes
- Duration: 3 days
- Detection: 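Nuclei stained with Hoechst and imaged; cell-cycle phase assigned by DNA content; G2 share scaled per plate, non-targeting siRNA 0%, GMNN siRNA 100%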
- Scale: G2 robust z-score and G2 cells, % of GMNN control: higher = more G2 cells, more excess DNA replication; raw share of cells in G2: higher = larger share of cells with G2 DNA content
- Active means: 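Active siRNAs have a G2 robust z of 5 or more median absolute deviations over the median, which in these data means about 38% or higher of GMNN control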

gene knocked down,reagent no.,G2 robust z-score,"G2 cells, % of GMNN control",raw share of cells in G2 (%)
RBP5,1,-0.492,-0.497,5.22
RBP5,2,-1.06,-4.52,2.56
RBP5,3,0.918,9.42,8.28
CYRIB,1,-1.05,-4.39,2.03
CYRIB,2,-0.888,-3.28,2.89
CYRIB,3,-0.355,0.466,3.35
DRAP1,1,-0.388,0.24,3.61
DRAP1,2,-0.636,-1.51,5.32
DRAP1,3,-0.459,-0.264,3.23
ATP2C2,1,-2.04,-11.4,1.15
ATP2C2,2,-0.285,0.96,5.11
ATP2C2,3,-0.228,1.37,4.91
SPINK1,1,-0.0668,2.5,4.78
SPINK1,2,0.0737,3.49,6.85
SPINK1,3,-0.66,-1.68,3.97
NHERF4,1,2.31,19.2,7.64
NHERF4,2,-0.824,-2.83,3.27
NHERF4,3,0.123,3.83,5.98
ADGRL2,1,0.0842,3.56,4.36
ADGRL2,2,-1.15,-5.16,4
ADGRL2,3,-0.533,-0.78,4.24
RPL18AP16,1,2.02,17.2,11.1
RPL18AP16,2,3.13,25,12.6
RPL18AP16,3,8.55 (active),63.1,30.9
KRTAP4-4,1,7.4 (active),55,22.4
KRTAP4-4,2,1.22,11.6,6.89
KRTAP4-4,3,-0.696,-1.93,1.82
C7orf33,1,-1.1,-4.8,1.84
C7orf33,2,2.73,22.2,10.7
C7orf33,3,0.485,6.38,5.23
MAGEB1,1,-0.756,-2.35,3.97
MAGEB1,2,1.13,10.9,8.53
MAGEB1,3,3.02,24.2,12.1
MMRN2,1,0.11,3.74,6
MMRN2,2,-0.2,1.56,4.99
MMRN2,3,1.02,10.1,5.14

5 entries from above, reformatted.
gene knocked down	reagent no.	G2 robust z-score	G2 cells, % of GMNN control	raw share of cells in G2 (%)
NHERF4	3	0.123	3.83	5.98
ADGRL2	1	0.0842	3.56	4.36
ADGRL2	2	-1.15	-5.16	4
ADGRL2	3	-0.533	-0.78	4.24
RPL18AP16	1	2.02	17.2	11.1

Further records follow:
gene knocked down,reagent no.,G2 robust z-score,"G2 cells, % of GMNN control",raw share of cells in G2 (%)
PPP3R1,1,-0.856,-3.05,3.8
PPP3R1,2,1.98,16.9,9.4
PPP3R1,3,-0.856,-3.06,2.58
LRRC17,1,2.36,19.6,14.2
LRRC17,2,0.202,4.39,7.6
LRRC17,3,-0.148,1.92,4.46
TRMT13,1,0.605,7.23,6.19
TRMT13,2,-0.537,-0.813,3.93
TRMT13,3,-0.977,-3.9,1.9
RTN4IP1,1,-0.551,-0.907,4.45
RTN4IP1,2,-0.143,1.96,4.9
RTN4IP1,3,0.374,5.6,7.76
FXN,1,1.89,16.3,12.9
FXN,2,0.112,3.75,5.46
FXN,3,0.219,4.51,5.29
AKR1A1,1,0.00895,3.03,4.82
AKR1A1,2,7.39 (active),55,28.1
AKR1A1,3,2.72,22.1,15.3
DCTN1,1,2.2,18.5,11.6
DCTN1,2,-0.184,1.67,5.6
DCTN1,3,0.236,4.63,5.69
FGF9,1,-0.276,1.03,3.92
FGF9,2,2.6,21.2,15.3
FGF9,3,0.0968,3.65,5.42
ZNF488,1,-0.951,-3.72,2.6
ZNF488,2,-0.0462,2.64,4.12
ZNF488,3,-0.614,-1.35,1.42
CCNG1,1,0.363,5.52,6.93
CCNG1,2,3.42,27,14.9
CCNG1,3,1.11,10.8,7.81
IRX6,1,1.37,12.6,8.8
IRX6,2,-0.611,-1.33,3.88
IRX6,3,0.154,4.05,7.32
LOC644554,1,-0.229,1.35,4.15
LOC644554,2,0.301,5.08,5.1
LOC644554,3,0.0985,3.66,4.21
MATN4,1,-0.924,-3.53,2.35
MATN4,2,-0.958,-3.77,4.31
MATN4,3,-0.648,-1.59,2.67
CENPW,1,-0.313,0.768,4.96
CENPW,2,1.16,11.1,7.58
CENPW,3,-0.495,-0.516,3.18
PARP2,1,4.05,31.4,17.1
PARP2,2,-0.305,0.822,5.08
PARP2,3,0.471,6.28,5.34
ITSN1,1,-0.261,1.13,6.06
ITSN1,2,-0.444,-0.159,4.49
ITSN1,3,-0.74,-2.24,3.22
PTH1R,1,-0.386,0.255,5.93
PTH1R,2,-0.331,0.641,4.74
PTH1R,3,-0.66,-1.68,2.75
